Data: article PMC12867876
These are yes or no findings as the source states them, for the method shown. In cells and extracts the contact can be indirect. Here binding means that the protein was enriched with, or labelled near, the bait; the list need not be complete. Where a sequence is shown, tags or fusion partners need not be part of it. Each block holds one binder with its values, some of them ahead of it.

Target: T1, Flag-CREG1 (cellular repressor of E1A-stimulated genes 1) (chicken) (UniProt Q5ZJ73)
T1 sequence: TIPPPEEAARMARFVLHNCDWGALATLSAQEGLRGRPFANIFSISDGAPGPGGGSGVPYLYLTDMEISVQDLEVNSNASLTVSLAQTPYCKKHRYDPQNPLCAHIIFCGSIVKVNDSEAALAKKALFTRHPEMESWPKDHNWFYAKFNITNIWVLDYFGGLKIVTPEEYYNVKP
Experiment: affinity purification with mass spectrometry; lysate (1000 μg) of Flag-CREG1 overexpressing DF-1 cells under viral infection; Flag antibody or IgG control with protein A/G beads overnight at 4 °C; 10% SDS-PAGE, silver staining, LC-MS/MS

binding: binds
B1: endogenous HSPD1 (heat shock protein family D (Hsp60) member 1) (protein, UniProt Q5ZL72 27-573)
chain: AKDVKFGADARALMLQGVDLLADAVAVTMGPKGRTVIIEQSWGSPKVTKDGVTVAKAIDLKDKYKNIGAKLVQDVANNTNEEAGDGTTTATVLARAIAKEGFEKISKGANPVEIRRGVMLAVDAITAELKKLSKPVTTPEEIAQVATISANGDQEIGNIISDAMKKVGRKGVITVKDGKTLNDELEIIEGMKFDRGYISPYFINTAKGQKCEFQDAYVLISEKKISSVQSIVPALEIANSHRKPLVIIAEDVDGEALSTLVLNRLKVGLQVVAVKAPGFGDNRKNQLKDMAIATGGAVFGEEGLSLNVEDIQPHDFGKVGEVIVTKDDTMLLKGKGEKAQIEKRIQEIIEQLEVTTSEYEKEKLNERLAKLSDGVAVLKVGGTSDVEVNEKKDRVTDALNATRAAVEEGIVPGGGCALLRCIPALDALKPANEDQKIGIEIIKRTLKIPAMTIAKNAGVEGSLIVEKILQSSSEVGYDAMLGEFVNMVEKGIIDPTKVVRTALMDAAGVASLLSTAEAVVTEVPKEEKEPAMGGMGGMGGGMGGGMF

binding: binds
B2: PHB (protein, UniProt P84173 1-272)
chain: MAAKVFESIGKFGLGLAVAGGVVNSALYNVDAGHRAVIFDRFRGVQDTVVGEGTHFLIPWVQKPIIFDCRSRPRNIPVITGSKDLQNVNITLRILFRPVTAQLPRIFTSIGEDYDERVLPSITTEILKSVVARFDAGELITQRELVSRQVSEDLTERAATFGLILDDVSLTHLTFGKEFTEAVEMKQVAQQEAERARFIVEKAEQQKKAAVISAEGDSKAAELIANSLATAGDGLIELRKLEAAEDIAYQLSRSRNITYLPSGQSVLLQLPQ
